Measurements reported in PubChem BioAssay AID1224830 (NIAID, 2016).
Here is one part, drawn at random, of about 18,000 deposited reagents. About 2,900 of all reagents (16%) were called active. 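Calls are made per well; low scores hint the gene aids the LPS response, high scores that it dampens it.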 Repeated entries: four replicate wells of each siRNA pool.

- Screen: 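Regulators of TLR4 signalling towards TNF-alpha in macrophage-like cells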 (primary screen)
- Cells: human THP-1 monocytic leukaemia cells, TNF dual-luciferase reporter clone, PMA-differentiated to macrophage-like cells
- Reagent: siRNA pool against human genes, 50 nM
- Duration: LPS for 4 h, given about 3 days after siRNA transfection
- Challenge: bacterial LPS (TLR4 ligand), 10 ng/ml
- Measurement: 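TNF firefly reporter luminescence divided by renilla, normalised to the plate median, then turned into a robust z-score for each replicate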
- Scale: TNF reporter robust z-score: higher = stronger TNF reporter response to LPS
- Active means: 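a well is active when its z-score exceeds 2.8 or falls below -1.5; control wells carry no call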

Gene	TNF reporter robust z-score	Call
PDE5A (GeneID 8654)	-0.27	inactive
PDE5A (GeneID 8654)	-0.99	inactive
PDE5A (GeneID 8654)	-1	inactive
PDE5A (GeneID 8654)	-1.14	inactive
MAEA (GeneID 10296)	0.59	inactive
MAEA (GeneID 10296)	0.31	inactive
MAEA (GeneID 10296)	-0.51	inactive
MAEA (GeneID 10296)	0.34	inactive
MED24 (GeneID 9862)	1.11	inactive
MED24 (GeneID 9862)	1.16	inactive
MED24 (GeneID 9862)	0.39	inactive
MED24 (GeneID 9862)	1.17	inactive
GNGT2 (GeneID 2793)	-0.52	inactive
GNGT2 (GeneID 2793)	-0.17	inactive
GNGT2 (GeneID 2793)	0.04	inactive
GNGT2 (GeneID 2793)	1.04	inactive
SDHB (GeneID 6390)	0.43	inactive
SDHB (GeneID 6390)	0.59	inactive
SDHB (GeneID 6390)	2.04	inactive
SDHB (GeneID 6390)	-0.18	inactive
PSMD14 (GeneID 10213)	-1.18	inactive
PSMD14 (GeneID 10213)	0.62	inactive
PSMD14 (GeneID 10213)	0.46	inactive
PSMD14 (GeneID 10213)	0.25	inactive
AQP3 (GeneID 360)	-0.51	inactive
AQP3 (GeneID 360)	1.33	inactive
AQP3 (GeneID 360)	0.35	inactive
AQP3 (GeneID 360)	-0.12	inactive
LY6G6C (GeneID 80740)	-0.88	inactive
LY6G6C (GeneID 80740)	-0.96	inactive
LY6G6C (GeneID 80740)	-1.17	inactive
LY6G6C (GeneID 80740)	-0.83	inactive
ASNS (GeneID 440)	-0.57	inactive
ASNS (GeneID 440)	-0.17	inactive
ASNS (GeneID 440)	0.55	inactive
ASNS (GeneID 440)	0.93	inactive
KDM2B (GeneID 84678)	0.94	inactive
KDM2B (GeneID 84678)	0.66	inactive
KDM2B (GeneID 84678)	-1.28	inactive
KDM2B (GeneID 84678)	-0.54	inactive
MCF2 (GeneID 4168)	-0.58	inactive
MCF2 (GeneID 4168)	0.37	inactive
MCF2 (GeneID 4168)	0.6	inactive
MCF2 (GeneID 4168)	-1.23	inactive
GGT7 (GeneID 2686)	0.09	inactive
GGT7 (GeneID 2686)	0.58	inactive
GGT7 (GeneID 2686)	-0.24	inactive
GGT7 (GeneID 2686)	0.51	inactive
CLC (GeneID 1178)	-1.19	inactive
CLC (GeneID 1178)	0.57	inactive
CLC (GeneID 1178)	-0.83	inactive
CLC (GeneID 1178)	-0.3	inactive
PDLIM7 (GeneID 9260)	-0.28	inactive
PDLIM7 (GeneID 9260)	-0.79	inactive
PDLIM7 (GeneID 9260)	-1.27	inactive
PDLIM7 (GeneID 9260)	-1.57	active
INHBE (GeneID 83729)	-0.32	inactive
INHBE (GeneID 83729)	-0.44	inactive
INHBE (GeneID 83729)	-0.57	inactive
INHBE (GeneID 83729)	0.18	inactive
LRRC8B (GeneID 23507)	-1.11	inactive
LRRC8B (GeneID 23507)	-1.41	inactive
LRRC8B (GeneID 23507)	-0.29	inactive
LRRC8B (GeneID 23507)	-1.19	inactive

8 entries already listed, sorted by “TNF reporter robust z-score”, ascending:
Gene	TNF reporter robust z-score	Call
PDLIM7 (GeneID 9260)	-1.57	active
PDLIM7 (GeneID 9260)	-1.27	inactive
LRRC8B (GeneID 23507)	-1.11	inactive
PDLIM7 (GeneID 9260)	-0.79	inactive
INHBE (GeneID 83729)	-0.57	inactive
INHBE (GeneID 83729)	-0.44	inactive
INHBE (GeneID 83729)	-0.32	inactive
INHBE (GeneID 83729)	0.18	inactive

More reagents follow:
Gene	TNF reporter robust z-score	Call
NBL1 (GeneID 4681)	-0.31	inactive
NBL1 (GeneID 4681)	-0.22	inactive
NBL1 (GeneID 4681)	-0.25	inactive
NBL1 (GeneID 4681)	-0.33	inactive
CNNM4 (GeneID 26504)	3.06	active
CNNM4 (GeneID 26504)	1.12	inactive
CNNM4 (GeneID 26504)	0.73	inactive
CNNM4 (GeneID 26504)	0.27	inactive
RHNO1 (GeneID 83695)	2.68	inactive
RHNO1 (GeneID 83695)	0.93	inactive
RHNO1 (GeneID 83695)	-0.52	inactive
RHNO1 (GeneID 83695)	0.65	inactive
EIF2B5 (GeneID 8893)	-0.54	inactive
EIF2B5 (GeneID 8893)	-0.62	inactive
EIF2B5 (GeneID 8893)	-0.03	inactive
EIF2B5 (GeneID 8893)	0.42	inactive
ADAM32 (GeneID 203102)	0.05	inactive
ADAM32 (GeneID 203102)	0.77	inactive
ADAM32 (GeneID 203102)	-0.06	inactive
ADAM32 (GeneID 203102)	0.58	inactive
SNX21 (GeneID 90203)	-0.94	inactive
SNX21 (GeneID 90203)	-0.97	inactive
SNX21 (GeneID 90203)	-1.39	inactive
SNX21 (GeneID 90203)	-1.22	inactive
ODF4 (GeneID 146852)	-0.63	inactive
ODF4 (GeneID 146852)	0.43	inactive
ODF4 (GeneID 146852)	0.02	inactive
ODF4 (GeneID 146852)	1.08	inactive
CTTNBP2NL (GeneID 55917)	0.24	inactive
CTTNBP2NL (GeneID 55917)	1.65	inactive
CTTNBP2NL (GeneID 55917)	-1.48	inactive
CTTNBP2NL (GeneID 55917)	-0.22	inactive
WRAP73 (GeneID 49856)	3.75	active
WRAP73 (GeneID 49856)	2.48	inactive
WRAP73 (GeneID 49856)	1.8	inactive
WRAP73 (GeneID 49856)	2.07	inactive
OPN1SW (GeneID 611)	0.16	inactive
OPN1SW (GeneID 611)	0.03	inactive
OPN1SW (GeneID 611)	-0.24	inactive
OPN1SW (GeneID 611)	-0.97	inactive
LOXL3 (GeneID 84695)	-0.83	inactive
LOXL3 (GeneID 84695)	0.53	inactive
LOXL3 (GeneID 84695)	-0.56	inactive
LOXL3 (GeneID 84695)	0.54	inactive
DPAGT1 (GeneID 1798)	-0.42	inactive
DPAGT1 (GeneID 1798)	-0.02	inactive
DPAGT1 (GeneID 1798)	0.37	inactive
DPAGT1 (GeneID 1798)	-0.14	inactive
